This passage reports isolated yield results from patent publication US20190038556A1 (University of Pittsburgh - Of The Commonwealth System of …, priority 2012, published 2019).

The data set can be described thus: peptide synthesis. The settings on record: whole synthesis.

Regarding “Monomethoxy PEG5,000-lysyl-[lysyl-(α-Fmoc-ε-oleoyl lysine)2]2”, the isolated yield turned out to be 79%.
